From publication PMC5601462
No constants are given. Whether binding was seen depends on the method and setting. In cells and extracts the contact can be indirect. Some entries that bind do so weakly or less than the wild type.

Chains of the proteins cited; added tags and fusions are not shown.
UniProt Q9NQB0: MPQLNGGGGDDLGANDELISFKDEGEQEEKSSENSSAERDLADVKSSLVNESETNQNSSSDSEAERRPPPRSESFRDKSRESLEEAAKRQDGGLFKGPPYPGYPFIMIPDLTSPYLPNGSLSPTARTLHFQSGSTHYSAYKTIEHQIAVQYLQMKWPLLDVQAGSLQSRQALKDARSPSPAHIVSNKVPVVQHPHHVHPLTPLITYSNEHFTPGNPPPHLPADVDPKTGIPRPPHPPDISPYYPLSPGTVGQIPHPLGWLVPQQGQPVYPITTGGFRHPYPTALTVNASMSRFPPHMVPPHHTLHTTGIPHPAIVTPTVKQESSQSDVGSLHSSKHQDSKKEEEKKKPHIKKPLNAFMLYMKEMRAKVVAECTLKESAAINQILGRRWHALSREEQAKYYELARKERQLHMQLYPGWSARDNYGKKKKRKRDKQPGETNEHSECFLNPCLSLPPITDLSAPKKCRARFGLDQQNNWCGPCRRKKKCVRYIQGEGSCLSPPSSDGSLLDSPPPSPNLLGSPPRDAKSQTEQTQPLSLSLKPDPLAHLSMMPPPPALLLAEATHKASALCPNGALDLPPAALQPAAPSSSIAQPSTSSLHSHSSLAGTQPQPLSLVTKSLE
UniProt Q9UI95: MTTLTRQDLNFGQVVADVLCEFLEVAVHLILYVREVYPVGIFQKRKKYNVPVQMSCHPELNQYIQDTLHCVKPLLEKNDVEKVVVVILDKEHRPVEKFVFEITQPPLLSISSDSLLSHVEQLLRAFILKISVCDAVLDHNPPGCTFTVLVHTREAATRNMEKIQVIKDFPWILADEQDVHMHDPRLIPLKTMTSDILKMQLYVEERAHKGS
UniProt Q13257: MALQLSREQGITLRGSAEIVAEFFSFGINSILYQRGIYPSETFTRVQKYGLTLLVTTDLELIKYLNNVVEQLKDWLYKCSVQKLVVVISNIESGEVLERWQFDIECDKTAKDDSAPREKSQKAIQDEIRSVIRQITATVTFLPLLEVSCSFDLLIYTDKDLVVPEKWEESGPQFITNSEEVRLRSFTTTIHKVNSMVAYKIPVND

Experiments:
[1] = molecular target: T cell factor 4 (human) (UniProt Q9NQB0); test: co-IP; lysates (RIPA buffer) of DPCs transduced with the vectors for 24 h; immunoprecipitated with TCF4 antibody or IgG (negative control), blotted for MAD2B (Fig. 4A) or MAD2B/β-catenin (Fig. 4C, with overexpression of β-catenin)
[2] = molecular target: mitotic arrest deficient protein MAD2B (human) (UniProt Q9UI95); test: co-IP; reverse co-IP: lysates (RIPA buffer) of DPCs transduced with the vectors for 24 h; immunoprecipitated with MAD2B antibody or IgG (negative control), blotted for TCF4 (Fig. 4B)

| Substance | binding [1] | binding [2] |
| --- | --- | --- |
| cell cycle checkpoint protein MAD2 (from UniProt Q13257 1-205) | no binding |  |
| mitotic arrest deficient protein MAD2B (from UniProt Q9UI95 1-211) | binds |  |
| T cell factor 4 (from UniProt Q9NQB0 1-619) |  | binds |
